The list shows a part of the results.
Compound: C1=CC=C(C=C1)[C@H](COC2=CC3=C(C=C2)NC(=O)N3)NC(=O)C4=CC=CN(C4=O)CC5=CC(=C(C=C5)F)F
Assay: log2 fold change, soluble protein after heating vs DMSO (PISA); higher = thermal stabilisation; K562 lysate, 10 uM; active = over 0.2 and 3.5 SD of the protein, either way, in both replicates (recomputed)
How it was run: (§1)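 A 30 min treatment with 10 μM compound was applied to crude K562 extract at 1 mg/mL protein in PBS pH 7.4 with 1 mM MgCl2. Heating for 3 min spanned 48°C-58°C, after which aliquots were pooled, adjusted to 0.5% NP-40 at 4°C and spun at 21,000xg for 90 min. TMTpro 16plex LC-MS/MS of the supernatant, with channel sums equalised, gave values recorded as log-two fold change in thermal stability against solvent controls, from duplicates.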

The chains behind the UniProt entries cited, without tags or fusion partners. Where a name states a change or a piece, a line headed by the entry shows the natural chain unless it says otherwise.
UniProt P14866: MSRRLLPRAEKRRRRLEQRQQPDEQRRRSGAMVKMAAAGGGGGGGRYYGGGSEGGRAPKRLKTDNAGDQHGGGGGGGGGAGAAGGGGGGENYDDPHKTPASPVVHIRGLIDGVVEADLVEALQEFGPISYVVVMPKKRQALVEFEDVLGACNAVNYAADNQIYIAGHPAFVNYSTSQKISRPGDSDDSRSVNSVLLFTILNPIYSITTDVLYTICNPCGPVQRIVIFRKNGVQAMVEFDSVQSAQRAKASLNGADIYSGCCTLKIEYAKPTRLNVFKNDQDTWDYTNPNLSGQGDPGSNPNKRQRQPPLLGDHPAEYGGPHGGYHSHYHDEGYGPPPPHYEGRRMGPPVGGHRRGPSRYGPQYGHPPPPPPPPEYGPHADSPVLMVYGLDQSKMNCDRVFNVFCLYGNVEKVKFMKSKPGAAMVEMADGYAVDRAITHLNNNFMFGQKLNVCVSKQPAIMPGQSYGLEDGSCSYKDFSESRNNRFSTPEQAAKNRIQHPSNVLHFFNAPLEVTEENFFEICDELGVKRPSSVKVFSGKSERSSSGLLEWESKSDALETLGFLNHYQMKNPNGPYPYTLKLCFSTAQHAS
UniProt Q8WVB3: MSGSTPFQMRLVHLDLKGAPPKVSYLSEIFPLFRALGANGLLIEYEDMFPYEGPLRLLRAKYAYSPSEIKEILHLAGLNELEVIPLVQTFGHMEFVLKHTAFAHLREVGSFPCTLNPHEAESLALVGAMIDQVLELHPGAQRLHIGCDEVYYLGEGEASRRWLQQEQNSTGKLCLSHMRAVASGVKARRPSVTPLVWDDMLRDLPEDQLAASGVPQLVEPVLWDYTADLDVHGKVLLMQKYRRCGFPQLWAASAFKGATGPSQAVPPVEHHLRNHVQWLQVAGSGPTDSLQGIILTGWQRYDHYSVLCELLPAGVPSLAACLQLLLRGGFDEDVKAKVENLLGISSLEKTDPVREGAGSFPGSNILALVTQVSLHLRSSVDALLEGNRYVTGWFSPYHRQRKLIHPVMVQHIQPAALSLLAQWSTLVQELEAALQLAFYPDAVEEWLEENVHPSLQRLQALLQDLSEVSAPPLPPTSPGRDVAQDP
UniProt Q14103: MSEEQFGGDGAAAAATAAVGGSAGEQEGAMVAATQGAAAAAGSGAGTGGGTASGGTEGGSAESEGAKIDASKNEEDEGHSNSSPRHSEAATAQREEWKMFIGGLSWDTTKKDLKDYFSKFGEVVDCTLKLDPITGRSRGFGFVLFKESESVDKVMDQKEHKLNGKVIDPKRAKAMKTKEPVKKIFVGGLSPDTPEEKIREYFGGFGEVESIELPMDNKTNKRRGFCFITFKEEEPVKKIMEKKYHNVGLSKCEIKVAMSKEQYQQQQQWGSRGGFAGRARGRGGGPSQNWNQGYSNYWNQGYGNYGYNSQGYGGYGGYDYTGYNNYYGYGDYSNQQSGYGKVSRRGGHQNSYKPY
UniProt Q15011: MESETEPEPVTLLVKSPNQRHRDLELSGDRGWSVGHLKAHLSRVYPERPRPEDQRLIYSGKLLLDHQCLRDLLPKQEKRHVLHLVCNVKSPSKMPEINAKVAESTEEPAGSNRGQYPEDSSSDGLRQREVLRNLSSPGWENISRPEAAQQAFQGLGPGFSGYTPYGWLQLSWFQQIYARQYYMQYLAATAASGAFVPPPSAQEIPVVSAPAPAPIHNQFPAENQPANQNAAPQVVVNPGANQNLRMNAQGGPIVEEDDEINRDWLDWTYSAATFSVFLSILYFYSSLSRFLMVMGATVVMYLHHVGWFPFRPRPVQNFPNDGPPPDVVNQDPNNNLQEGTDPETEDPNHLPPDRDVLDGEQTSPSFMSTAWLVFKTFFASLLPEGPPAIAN
UniProt P08397: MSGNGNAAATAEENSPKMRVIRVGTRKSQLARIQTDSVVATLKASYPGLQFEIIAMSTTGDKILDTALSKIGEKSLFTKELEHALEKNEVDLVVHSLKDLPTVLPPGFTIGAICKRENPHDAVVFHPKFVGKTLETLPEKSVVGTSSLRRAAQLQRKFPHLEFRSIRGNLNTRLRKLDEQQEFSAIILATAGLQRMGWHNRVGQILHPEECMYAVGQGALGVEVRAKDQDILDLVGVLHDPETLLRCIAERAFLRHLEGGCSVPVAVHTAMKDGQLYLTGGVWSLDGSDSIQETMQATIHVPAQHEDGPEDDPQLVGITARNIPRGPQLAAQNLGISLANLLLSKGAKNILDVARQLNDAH
UniProt Q96ED9: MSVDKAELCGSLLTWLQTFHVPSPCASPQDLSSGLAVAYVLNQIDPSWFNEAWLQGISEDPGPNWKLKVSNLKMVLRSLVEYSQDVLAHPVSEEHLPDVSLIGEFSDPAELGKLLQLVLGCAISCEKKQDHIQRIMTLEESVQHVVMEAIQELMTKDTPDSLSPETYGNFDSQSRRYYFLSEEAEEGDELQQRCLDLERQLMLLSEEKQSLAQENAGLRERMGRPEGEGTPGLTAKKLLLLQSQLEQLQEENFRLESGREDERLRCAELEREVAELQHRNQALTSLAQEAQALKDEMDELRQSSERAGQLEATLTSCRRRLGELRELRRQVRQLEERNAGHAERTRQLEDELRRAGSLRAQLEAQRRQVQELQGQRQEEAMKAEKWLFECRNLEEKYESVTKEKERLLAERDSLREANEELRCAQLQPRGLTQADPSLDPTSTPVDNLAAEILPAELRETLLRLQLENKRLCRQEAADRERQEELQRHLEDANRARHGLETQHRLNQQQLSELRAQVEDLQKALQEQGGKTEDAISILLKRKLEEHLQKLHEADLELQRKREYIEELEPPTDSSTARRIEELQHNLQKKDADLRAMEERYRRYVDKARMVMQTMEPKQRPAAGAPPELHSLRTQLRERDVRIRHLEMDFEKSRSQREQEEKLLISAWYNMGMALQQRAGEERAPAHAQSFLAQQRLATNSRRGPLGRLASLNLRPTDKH
UniProt P50135: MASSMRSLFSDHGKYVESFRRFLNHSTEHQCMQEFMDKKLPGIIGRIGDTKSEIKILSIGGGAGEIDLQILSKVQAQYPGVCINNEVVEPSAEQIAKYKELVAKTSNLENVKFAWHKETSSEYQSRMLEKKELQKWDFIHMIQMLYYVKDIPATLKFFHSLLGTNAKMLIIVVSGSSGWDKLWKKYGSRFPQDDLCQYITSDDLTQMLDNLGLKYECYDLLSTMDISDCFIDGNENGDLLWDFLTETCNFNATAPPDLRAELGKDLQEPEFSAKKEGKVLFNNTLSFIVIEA
UniProt P42694: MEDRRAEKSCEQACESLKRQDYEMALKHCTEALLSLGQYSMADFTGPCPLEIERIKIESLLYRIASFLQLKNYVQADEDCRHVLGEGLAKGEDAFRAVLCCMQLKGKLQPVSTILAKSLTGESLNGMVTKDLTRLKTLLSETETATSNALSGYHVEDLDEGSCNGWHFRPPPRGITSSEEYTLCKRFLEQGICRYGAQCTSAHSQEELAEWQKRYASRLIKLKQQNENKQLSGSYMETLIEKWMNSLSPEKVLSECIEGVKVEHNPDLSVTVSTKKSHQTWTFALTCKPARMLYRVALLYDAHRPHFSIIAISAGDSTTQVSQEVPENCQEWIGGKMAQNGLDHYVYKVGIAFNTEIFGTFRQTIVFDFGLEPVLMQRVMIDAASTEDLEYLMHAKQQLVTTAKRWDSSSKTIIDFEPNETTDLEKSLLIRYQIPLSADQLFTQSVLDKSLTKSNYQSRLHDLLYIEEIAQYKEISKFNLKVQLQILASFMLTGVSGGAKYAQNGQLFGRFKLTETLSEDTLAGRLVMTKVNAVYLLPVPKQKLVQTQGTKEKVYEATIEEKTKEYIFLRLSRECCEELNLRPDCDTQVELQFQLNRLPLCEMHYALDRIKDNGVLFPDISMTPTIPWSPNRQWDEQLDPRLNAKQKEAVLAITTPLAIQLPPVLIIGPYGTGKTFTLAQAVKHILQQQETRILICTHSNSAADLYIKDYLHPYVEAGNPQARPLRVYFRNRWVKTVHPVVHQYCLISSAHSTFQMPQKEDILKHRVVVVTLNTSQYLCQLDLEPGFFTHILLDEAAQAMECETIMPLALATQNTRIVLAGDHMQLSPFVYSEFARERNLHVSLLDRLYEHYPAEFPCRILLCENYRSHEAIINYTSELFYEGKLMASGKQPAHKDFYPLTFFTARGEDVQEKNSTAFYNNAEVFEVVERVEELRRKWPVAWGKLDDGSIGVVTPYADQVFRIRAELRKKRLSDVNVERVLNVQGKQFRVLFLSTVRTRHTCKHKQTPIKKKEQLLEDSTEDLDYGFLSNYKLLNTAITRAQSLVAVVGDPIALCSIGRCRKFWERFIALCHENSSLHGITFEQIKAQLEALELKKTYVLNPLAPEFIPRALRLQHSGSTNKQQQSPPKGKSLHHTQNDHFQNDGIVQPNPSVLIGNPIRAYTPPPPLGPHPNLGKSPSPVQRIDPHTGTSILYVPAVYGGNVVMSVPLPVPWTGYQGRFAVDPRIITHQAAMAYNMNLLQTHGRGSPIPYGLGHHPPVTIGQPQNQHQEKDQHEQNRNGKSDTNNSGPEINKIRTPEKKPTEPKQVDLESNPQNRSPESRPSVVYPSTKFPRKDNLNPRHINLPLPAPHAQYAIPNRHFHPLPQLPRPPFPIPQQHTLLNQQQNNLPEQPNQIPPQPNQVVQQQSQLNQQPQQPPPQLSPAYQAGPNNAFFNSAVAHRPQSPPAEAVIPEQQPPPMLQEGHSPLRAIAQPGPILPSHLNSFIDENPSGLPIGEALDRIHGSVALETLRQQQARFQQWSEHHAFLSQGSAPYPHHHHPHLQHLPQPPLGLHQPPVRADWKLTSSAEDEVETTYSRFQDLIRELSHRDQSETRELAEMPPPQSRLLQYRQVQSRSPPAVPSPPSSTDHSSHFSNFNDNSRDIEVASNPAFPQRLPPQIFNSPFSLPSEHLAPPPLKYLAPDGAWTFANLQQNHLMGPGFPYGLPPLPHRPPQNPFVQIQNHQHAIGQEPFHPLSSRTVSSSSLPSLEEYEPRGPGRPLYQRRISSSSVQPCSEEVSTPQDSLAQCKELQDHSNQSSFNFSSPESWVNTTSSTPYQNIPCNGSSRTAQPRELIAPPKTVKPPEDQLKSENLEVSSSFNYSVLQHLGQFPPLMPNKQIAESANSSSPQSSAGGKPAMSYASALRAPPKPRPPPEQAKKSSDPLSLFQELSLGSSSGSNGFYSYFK
UniProt Q15651: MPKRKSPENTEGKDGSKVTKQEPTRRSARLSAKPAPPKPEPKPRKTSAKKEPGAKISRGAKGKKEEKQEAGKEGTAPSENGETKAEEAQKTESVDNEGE
UniProt Q9BTY7: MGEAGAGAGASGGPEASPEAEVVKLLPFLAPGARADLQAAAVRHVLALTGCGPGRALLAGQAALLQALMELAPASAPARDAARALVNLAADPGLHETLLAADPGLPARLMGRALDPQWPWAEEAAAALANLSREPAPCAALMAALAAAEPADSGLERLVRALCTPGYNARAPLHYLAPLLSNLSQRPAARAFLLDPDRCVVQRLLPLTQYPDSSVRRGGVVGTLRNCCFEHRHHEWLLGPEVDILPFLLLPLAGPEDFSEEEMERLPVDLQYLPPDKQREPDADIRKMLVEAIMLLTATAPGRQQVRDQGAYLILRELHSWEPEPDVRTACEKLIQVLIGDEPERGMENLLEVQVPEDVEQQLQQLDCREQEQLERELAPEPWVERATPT
UniProt P14625, whole entry, looked up: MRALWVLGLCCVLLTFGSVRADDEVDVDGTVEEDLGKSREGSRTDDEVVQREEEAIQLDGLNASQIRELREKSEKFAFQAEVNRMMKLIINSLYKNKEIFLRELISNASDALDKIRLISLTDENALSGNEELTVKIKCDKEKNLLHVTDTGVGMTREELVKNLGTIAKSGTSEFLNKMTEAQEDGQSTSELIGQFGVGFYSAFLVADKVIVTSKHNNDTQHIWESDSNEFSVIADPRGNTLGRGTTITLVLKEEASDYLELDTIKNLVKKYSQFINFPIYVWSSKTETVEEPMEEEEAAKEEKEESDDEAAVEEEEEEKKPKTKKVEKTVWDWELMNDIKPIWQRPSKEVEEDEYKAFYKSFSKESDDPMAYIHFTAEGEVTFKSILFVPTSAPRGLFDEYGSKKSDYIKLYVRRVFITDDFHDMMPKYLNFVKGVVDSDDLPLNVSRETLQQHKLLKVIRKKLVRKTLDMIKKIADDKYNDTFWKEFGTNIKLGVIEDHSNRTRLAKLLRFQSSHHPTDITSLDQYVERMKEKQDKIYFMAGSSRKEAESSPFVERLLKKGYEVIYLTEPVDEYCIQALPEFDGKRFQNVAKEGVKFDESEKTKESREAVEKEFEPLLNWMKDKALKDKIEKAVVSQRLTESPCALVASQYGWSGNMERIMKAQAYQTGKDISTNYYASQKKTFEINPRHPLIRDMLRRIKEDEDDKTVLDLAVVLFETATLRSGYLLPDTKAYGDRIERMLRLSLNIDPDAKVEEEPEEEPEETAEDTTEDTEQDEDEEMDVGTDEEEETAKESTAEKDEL
UniProt Q9Y241: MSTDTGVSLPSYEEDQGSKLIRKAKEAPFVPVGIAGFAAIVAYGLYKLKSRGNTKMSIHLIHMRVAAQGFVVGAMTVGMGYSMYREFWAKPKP

Target | log2 fold change
HNRNPUL1 (UniProt M0R247) | inactive: 0.059
HNRNPL (UniProt P14866) | inactive: -0.01
HMCN1 (UniProt Q96RW7) | inactive: -0.013
HM13 isoform 2 (UniProt Q8TCT9) | inactive: 0.004
HOMER3 (UniProt Q9NSC5) | inactive: 0.072
HEXD isoform 2 (UniProt Q8WVB3) | inactive: -0.067
HNRNPD isoform 3 (UniProt Q14103) | inactive: -0.087
HERPUD1 (UniProt Q15011) | inactive: -0.015
HMBS (UniProt P08397) | inactive: 0.011
HEBP2 (UniProt Q9Y5Z4) | inactive: -0.07
HOOK2 (UniProt Q96ED9) | inactive: -0.261
HNMT (UniProt P50135) | inactive: -0.018
HELZ (UniProt P42694) | inactive: -0.081
HMGN4 (UniProt O00479) | inactive: -0.137
HMGN3 (UniProt Q15651) | inactive: 0.064
HGH1 (UniProt Q9BTY7) | inactive: -0.009
HSP90B1 (UniProt P14625) | inactive: 0.025

Compound: CC1=C(SC2=C1C(=N[C@H](C3=NN=C(N32)C)CC(=O)N)C4=CC=C(C=C4)Cl)C
Assay: as above
How it was run: as §1

Target | log2 fold change
HNRNPUL1 (UniProt M0R247) | inactive: -0.014
HNRNPL (UniProt P14866) | inactive: -0.024
HMCN1 (UniProt Q96RW7) | inactive: -0.002
HM13 isoform 2 (UniProt Q8TCT9) | inactive: -0.017
HOMER3 (UniProt Q9NSC5) | inactive: -0.276
HEXD isoform 2 (UniProt Q8WVB3) | inactive: -0.165
HNRNPD isoform 3 (UniProt Q14103) | inactive: -0.145
HERPUD1 (UniProt Q15011) | inactive: 0.066
HMBS (UniProt P08397) | inactive: 0.018
HEBP2 (UniProt Q9Y5Z4) | inactive: -0.058
HOOK2 (UniProt Q96ED9) | inactive: 0.28
HNMT (UniProt P50135) | inactive: 0.074
HELZ (UniProt P42694) | inactive: 0
HMGN4 (UniProt O00479) | inactive: -0.395
HMGN3 (UniProt Q15651) | inactive: -0.059
HGH1 (UniProt Q9BTY7) | inactive: 0.006
HSP90B1 (UniProt P14625) | inactive: -0.003

Compound: CC1=C2C(=CC=C1)N=C(N(C2=O)C3=CC=CC=C3C)CN4C=NC5=C(N=CN=C54)N
Assay: as above
How it was run: as §1

Target | log2 fold change
HNRNPL (UniProt P14866) | inactive: 0.04
HMCN1 (UniProt Q96RW7) | inactive: -0.105
HSF2 (UniProt Q03933) | inactive: -0.034
HM13 isoform 2 (UniProt Q8TCT9) | inactive: 0.025
HECW2 (UniProt Q9P2P5) | inactive: -0.048
HNRNPM (UniProt M0R019) | inactive: -0.116
HEXD isoform 2 (UniProt Q8WVB3) | inactive: 0.065
HMGXB4 (UniProt Q9UGU5) | inactive: -0.01
HNRNPD isoform 3 (UniProt Q14103) | inactive: 0
HERPUD1 (UniProt Q15011) | inactive: 0.009
HMBS (UniProt P08397) | inactive: -0.033
HEBP2 (UniProt Q9Y5Z4) | inactive: 0.013
HELZ2 (UniProt Q9BYK8) | inactive: -0.117
HELZ (UniProt P42694) | inactive: 0.005
HMGN4 (UniProt O00479) | inactive: -0.186
HIRA (UniProt P54198) | inactive: 0.17
HPS3 (UniProt Q969F9) | inactive: -0.048
HGH1 (UniProt Q9BTY7) | inactive: 0.022
HSP90B1 (UniProt P14625) | inactive: -0.011

Compound: Cc1sc2c(c1C)C(c1ccc(Cl)cc1)=N[C@@H](CC(=O)OC(C)(C)C)c1nnc(C)n1-2
Assay: as above
How it was run: as §1

Target | log2 fold change
HNRNPL (UniProt P14866) | inactive: 0.039
HSF2 (UniProt Q03933) | inactive: -0.064
HM13 isoform 2 (UniProt Q8TCT9) | inactive: -0.062
HECW2 (UniProt Q9P2P5) | inactive: -0.093
HIGD2A (UniProt Q9BW72) | inactive: 0.224
HPGD (UniProt P15428) | inactive: -0.216
HNRNPD isoform 3 (UniProt Q14103) | inactive: -0.096
HMBS (UniProt P08397) | inactive: 0.029
HNRNPC isoform 2 (UniProt P07910) | inactive: 0.054
HEBP2 (UniProt Q9Y5Z4) | inactive: 0.002
HEXIM2 (UniProt Q96MH2) | inactive: 0.05
HOOK2 (UniProt Q96ED9) | inactive: -0.005
HNMT (UniProt P50135) | inactive: -0.101
HES1 (UniProt Q14469) | inactive: 0.108
HPS6 (UniProt Q86YV9) | inactive: -0.116
HOOK1 (UniProt Q9UJC3) | inactive: -0.158
HELZ (UniProt P42694) | inactive: 0.066
HMGA1 isoform 2 (UniProt P17096) | inactive: 0.055
HMGN4 (UniProt O00479) | inactive: 0.297
HERC3 (UniProt Q15034) | inactive: 0.01
HIGD1A isoform 2 (UniProt Q9Y241) | inactive: -0.005
HNRNPU isoform 2 (UniProt Q00839) | inactive: -0.004
HP (UniProt P00738) | inactive: -0.16
HMGN3 (UniProt Q15651) | inactive: -0.005
HIRA (UniProt P54198) | inactive: 0.081
HPS3 (UniProt Q969F9) | inactive: 0.057
HGH1 (UniProt Q9BTY7) | inactive: 0.043
HSP90B1 (UniProt P14625) | inactive: 0.005
HRAS (UniProt P01112) | inactive: 0.19
HELLS (UniProt Q9NRZ9) | inactive: 0.009

Reference: the supplement of paper PMC10849652
